Source: publication PMC11984502, “A stress-responsive p38 signaling axis in choanoflagellates” (RSC Chemical Biology, 2025)
Only a part is listed here, and it is no random draw. The numbers are fractions of the control, whatever unit the source prints.

test system: S. rosetta (SrEpac culture); settings: flow cytometry, 24 h, high-nutrient medium; 10 µM

Which “% viability” value does the source give for `CC(C)n1nc(-c2ccc3ccncc3c2)c2c(N)ncnc21` [KMS_134] here?
Its value is 0.7219.

`Nc1ccc(C(=O)Nc2cccc(-c3nc(N4CCOCC4)c4oc5ncccc5c4n3)c2)cn1` [YM201636] was tested. Which “% viability” value did it give?
The value was 0.922.

`Nc1nc(N)c2nc(-c3cccc(O)c3)cnc2n1` [TG100713] was tested. Which “% viability” value did it give?
The value was 1.681.
